Weaker means in comparison with the reference protein, sequence or condition of that experiment. Protein sequences can lack the tags named with them. The exact form of at least one protein or probe is not confirmed. At least one verdict rests on a figure or table, not on a statement of the authors.
Target: T1, Elk1-db (ETS DNA-binding domain) (Homo sapiens) (UniProt P19419)
T1 sequence (looked up): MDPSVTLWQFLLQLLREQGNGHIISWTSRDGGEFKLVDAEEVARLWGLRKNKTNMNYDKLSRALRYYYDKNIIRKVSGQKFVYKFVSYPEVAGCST
Assay: EMSA
Settings: 10 mM Tris pH 7.5, 50 mM KCl, 1 mM DTT, 1 ug poly(dI-dC), 5% glycerol, 1 mM EDTA, 0.3% BSA, protease inhibitors, 20 fmol probe, 300 ng Elk1-db, 20 min room temperature, recombinant protein, residues 1-96, protein details: 6xHis, label: 3' biotin on both strands

CGAGGTCGTCCCCGGCACCGGAAGTGACCCTGGCGGGTTTGT (double strand) [KATNA1_UTR1_WT, CpG methylated]
binding result (CpG methylated probe, 5-methyl-C at CpG (M.SssI, all CpG, both strands)): binds more weakly

CGGAGAGGACAGCGACAGGAAGGGAGG (double strand) [SPG4_WT_2 (-235/-226), CpG methylated]
binding result (CpG methylated probe, same as unmethylated, 5-methyl-C at CpG (M.SssI, all CpG, both strands)): binds

TACGAAGGCTTCCTGGCAGGAGCTC (double strand) [SPG4_WT_1 (-451/-442)]
binding result (gel not shown): binds

TACGAAGGCTTCCTGGCAGGAGCTC (double strand) [SPG4_WT_1 (-451/-442), CpG methylated]
binding result (CpG methylated probe, gel not shown, 5-methyl-C at CpG (M.SssI, all CpG, both strands)): binds

CGGAGAGGACAGCGACAGGAAGGGAGG (double strand) [SPG4_WT_2 (-235/-226)]
binding result: binds

Reference: PMC6383945, “Elk1 affects katanin and spastin proteins via differential transcriptional and post-transcriptional regulations”
